In the experiment the test system is HDF cells. The experiment can be described thus: Long term induction of CiPSC from HDF with compound cocktails. Type of experiment: cell-based, human. The note with it: synchronization of cells.

`CN[C@H]1CCc2cc(OC)c(OC)c(OC)c2-c2ccc(OC)c(=O)cc21` [Colcemid, N-deacetyl-N-Methylcolchicine]: the Efficiency of induction result is “increased efficiency”.

These data come from patent publication US9988607B2, “Artificial three-dimensional microenvironment niche culture and methods of using the same” (priority 2008, dated 2018).
